For 5 molecules, binding results are on record in patent publication US20120172578A1 (VLAAMS INTERUNIVERSITAIR INSTITUUT VOOR BIOTECHNOLOGIE, published 2012).

Test [1] deals with Poly A Binding Protein Type 2. The test is described as follows: column 'Antigen recognized by antibody'.
Test [2] has as its target Poly A Binding Protein Type 2. Nature of the test: phage display panning; evaluated in ELISA. In general terms: An ELISA detects its analyte on a solid surface through an enzyme-linked reagent.
In test [3] the target is Variant Surface Glycoprotein trypanosome (trypanosome). Nature of the test: column 'Antigen recognized by antibody'.
Test [4] shares this target. The test is described as follows: phage display panning; evaluated in ELISA.
Test [5] has as its target β-lactamase. Nature of the test: column 'Antigen recognized by antibody'.
The target of test [6] is β-lactamase. The test is described as follows: phage display panning; evaluated in ELISA.

These are yes or no findings as the source states them, for the method shown. A result given as binding can be weak or reduced; the word gives no strength.

B1: C4 PABP2 (VHH)
VHH: QVQLQESGGGLVQPGGSLRLSCAASGFTFSRSWMYWVRQAPGKGLEWVSSITPGGSEPFYVDSVKGRFTISRDNAKNTLYLQMNSLKSEDTAVYFCAKDSKNGPRGQGTQVTVSS
As for B1, the binding result in test [1] and in test [2] was “binds” throughout.

B2: E3 PABP2 (VHH)
VHH: QVQLQESGGGLVQPGGSLRLSCAASGFTFSRSWMYWVRQAPGKGLEWVSSITPGGTEAFYADSVKGRFTISRDNAKNTLYLQMNSLKSEDTALYFCAKDSKNGPRGQGTQVTVSS
In the case of B2, the binding result in test [1] and in test [2] was “binds” throughout.

B3: F6 PABP2 (VHH)
VHH: QVQLQESGGGLVQPGGSLRLSCATSGFIFSDYWMYWVRQAPGKGLEWVSSITPGASTTLYADSVKGRFTISRDNAKNTLYLQMNSLKSEDTAVYYCAKGSKIGPRGQGTQVTVSS
Consider B3, for which the binding result in test [1] and in test [2] was “binds” each time.

B4: cAbAn04 (VHH)
VHH: QVQLVESGGGSVEAGGSLRLSCVVSGYSVSIGCMAWFRQAPGSGREGVAGISRGGSMTDYTASVKGRFTISRDNDQRTVTLQMNSLKPEDTAVYYCARDGPEIATMIGGSRGRGTQVTVSS
Regarding B4, the binding result in test [3] and in test [4] was “binds” in each case.

B5: cAbBLA01 (VHH)
VHH: QLQLVESGGGSVQSGGSLRLSCKVSGYIGSTNCMGWFRQAPGKEREGVASLFTGSGNTYYGDSVKGRFTISEDNAKNTVSLQMNSLKPEDTAMYYCASSSNVGSDESCGRKNTRQFVYTYQGQGTQVTVSS
As for B5, the binding result with β-lactamase [5] and in the test with β-lactamase [6] was “binds” in each case.
